These are yes or no findings as the source states them, for the method shown. Binding seen in cells or lysates may run through a third protein. Some binding calls cover weakened binding; strength is not graded here.

Amino acid sequences for entries named in this document (tags omitted).
UniProt Q61768: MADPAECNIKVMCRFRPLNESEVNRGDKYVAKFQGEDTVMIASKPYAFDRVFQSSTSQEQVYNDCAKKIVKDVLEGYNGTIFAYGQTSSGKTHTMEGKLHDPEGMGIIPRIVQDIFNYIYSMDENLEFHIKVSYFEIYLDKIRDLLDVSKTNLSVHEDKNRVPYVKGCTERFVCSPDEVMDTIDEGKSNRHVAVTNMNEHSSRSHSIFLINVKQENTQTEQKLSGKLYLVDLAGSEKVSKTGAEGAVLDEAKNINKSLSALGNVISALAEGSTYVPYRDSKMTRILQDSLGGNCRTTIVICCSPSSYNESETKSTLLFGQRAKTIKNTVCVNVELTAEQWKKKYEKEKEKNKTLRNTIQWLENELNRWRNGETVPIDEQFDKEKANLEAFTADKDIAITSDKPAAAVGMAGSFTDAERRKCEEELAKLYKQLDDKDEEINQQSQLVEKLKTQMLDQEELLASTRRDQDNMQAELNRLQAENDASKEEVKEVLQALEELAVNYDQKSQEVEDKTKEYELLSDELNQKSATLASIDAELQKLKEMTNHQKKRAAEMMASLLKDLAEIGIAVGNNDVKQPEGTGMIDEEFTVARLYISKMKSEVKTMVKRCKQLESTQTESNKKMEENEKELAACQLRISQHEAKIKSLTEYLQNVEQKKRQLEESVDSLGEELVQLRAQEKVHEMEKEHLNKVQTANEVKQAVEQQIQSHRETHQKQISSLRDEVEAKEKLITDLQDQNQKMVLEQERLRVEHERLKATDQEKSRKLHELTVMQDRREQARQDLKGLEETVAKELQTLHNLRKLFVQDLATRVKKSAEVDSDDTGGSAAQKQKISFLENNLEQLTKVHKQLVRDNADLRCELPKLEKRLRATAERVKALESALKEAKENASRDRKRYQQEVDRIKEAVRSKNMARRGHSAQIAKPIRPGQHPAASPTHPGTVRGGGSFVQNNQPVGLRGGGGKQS
UniProt Q07866: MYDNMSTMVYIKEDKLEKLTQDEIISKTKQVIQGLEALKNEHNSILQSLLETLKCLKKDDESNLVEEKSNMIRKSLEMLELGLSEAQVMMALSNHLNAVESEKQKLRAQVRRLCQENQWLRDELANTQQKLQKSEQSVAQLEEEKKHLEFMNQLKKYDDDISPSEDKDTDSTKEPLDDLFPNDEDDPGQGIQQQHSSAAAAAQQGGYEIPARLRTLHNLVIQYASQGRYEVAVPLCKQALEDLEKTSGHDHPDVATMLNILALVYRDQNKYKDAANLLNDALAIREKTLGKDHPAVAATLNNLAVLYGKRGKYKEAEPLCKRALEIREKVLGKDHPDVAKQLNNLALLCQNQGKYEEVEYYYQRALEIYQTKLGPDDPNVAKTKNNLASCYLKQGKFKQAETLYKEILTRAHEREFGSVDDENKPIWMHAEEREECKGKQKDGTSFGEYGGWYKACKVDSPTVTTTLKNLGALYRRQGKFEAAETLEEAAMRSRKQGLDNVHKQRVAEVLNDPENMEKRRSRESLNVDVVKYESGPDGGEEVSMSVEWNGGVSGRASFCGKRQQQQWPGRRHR
UniProt Q9H0B6: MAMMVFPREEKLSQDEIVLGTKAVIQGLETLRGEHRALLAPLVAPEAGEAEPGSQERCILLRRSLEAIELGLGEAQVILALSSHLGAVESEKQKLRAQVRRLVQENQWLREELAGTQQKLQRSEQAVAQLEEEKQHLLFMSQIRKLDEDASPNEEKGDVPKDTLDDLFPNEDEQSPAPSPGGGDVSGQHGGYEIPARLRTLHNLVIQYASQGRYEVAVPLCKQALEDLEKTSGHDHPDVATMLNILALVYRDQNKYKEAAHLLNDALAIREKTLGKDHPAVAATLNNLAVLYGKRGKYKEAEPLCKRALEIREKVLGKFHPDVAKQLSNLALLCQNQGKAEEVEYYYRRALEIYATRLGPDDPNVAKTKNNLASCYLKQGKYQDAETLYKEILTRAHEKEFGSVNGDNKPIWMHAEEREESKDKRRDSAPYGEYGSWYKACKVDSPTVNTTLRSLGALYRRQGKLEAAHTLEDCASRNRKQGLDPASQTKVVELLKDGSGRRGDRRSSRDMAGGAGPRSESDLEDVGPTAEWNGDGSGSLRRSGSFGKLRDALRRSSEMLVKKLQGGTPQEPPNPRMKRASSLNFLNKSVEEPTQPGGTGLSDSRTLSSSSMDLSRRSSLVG

For the test, the target named is full-length mKif5b-Emerald (mouse KIF5B, kinesin-1 heavy chain, fused to Emerald) (mouse) (UniProt Q61768). Briefly: pull-down.

For “kinesin light chain 1 (KLC1) (from UniProt Q07866 1-573)”, the binding result is “binds”. To “kinesin light chain 2 (KLC2) (from UniProt Q9H0B6 1-622)” belongs “binds”.

For the origin of these results see article doi:10.1101/251405.
